Test results from patent US8278473B2, “Alpha, beta-unsaturated imidate compound and pesticidal composition containing the same” (Sumitomo Chemical Company, Limited, priority 2007, dated 2012).
Some entries share one result that the patent states for a list of compounds. For part of these data: The name of at least one read-out is uncertain. Some ranges recur; such a range may be that of the whole group of compounds.

Key:
Assay type in all cases: in vivo
[1] = tested on: Adoxophyes orana; test: Test Example 2: Adoxophyes orana, artificial diet/filter paper test; settings: 500 ppm test solution, 1 mL; first-instar larvae; after 7 days
[2] = tested on: Blattalla germanica; test: Test Example 6: Blattalla germanica, filter paper with sucrose bait; settings: 500 ppm test solution, 0.7 ml on filter paper; male imagoes; after 6 days
[3] = tested on: Tetranychus urticae; test: Test Example 8: Tetranychus urticae, spray on bean plant; settings: 500 ppm test solution, 20 mL sprayed on bean plant; after 8 days
[4] = tested on: Nilaparvata lugens; test: Test Example 4: Nilaparvata lugens, spray on rice plant; settings: 500 ppm test solution, 20 mL/pot sprayed on rice; first-instar larvae; after 6 days
[5] = tested on: Spodoptera litura; test: Test Example 1: Spodoptera litura, artificial diet/filter paper test; settings: 500 ppm test solution, 2 mL; fourth-instar larvae; after 6 days
[6] = tested on: Plutella xylostella; test: Test Example 9: Plutella xylostella, spray on cabbage; settings: 500 ppm test solution, 20 mL sprayed on cabbage; second-instar larvae; 25° C.; after 5 days
[7] = tested on: Aphis gossypii; test: Test Example 3: Aphis gossypii, spray on cucumber leaves; settings: 500 ppm test solution, 20 mL sprayed on cucumber; imagoes and larvae; after 6 days
[8] = tested on: Musca domestica; test: Test Example 5: Musca domestica, filter paper with sucrose bait; settings: 500 ppm test solution, 0.7 ml on filter paper; female imagoes; after 24 hours
[9] = tested on: Culex pipiens pallens; test: Test Example 7: Culex pipiens pallens larvae in treated water; settings: active ingredient concentration 3.5 ppm in water; last-instar larvae; after 1 day

SMILES | index in terms of death rate [1] | index in terms of death rate [2] | index in terms of the surviving number (female imagoes) [3] | index in terms of survival rate [4] | index in terms of death rate [5] | index in terms of death rate [6] | index in terms of survival rate [7] | index in terms of death rate [8] | index in terms of death rate [9]
CC(=COc1ccc(C(C)C)cc1)C(=Nc1ccccc1)Oc1ccccc1 [Compound 230, phenyl 3-(4-isopropylphenyloxy)-2-methyl-N-phenyl-2-propenimidate] | 3 (3: 80 to 99%) | 4 (4: 100%) | 3 (index 3: 4 to 10) | 3 (3: 1 to 10%) | 3 (3: 80 to 99%) | 3 (3: 80 to 99%) | 3 (3: 1 to 10%) | 3 (3: 70 to 99%) | 4 (4: 91 to 100%)
COc1ccccc1OC=C(C)C(=Nc1ccccc1)Oc1ccccc1 [Compound 232, phenyl 3-(2-methoxyphenyloxy)-2-methyl-N-phenyl-2-propenimidate] | 3 (3: 80 to 99%) | 4 (4: 100%) | 3 (index 3: 4 to 10) | 3 (3: 1 to 10%) | 3 (3: 80 to 99%) | 3 (3: 80 to 99%) | 3 (3: 1 to 10%) | 3 (3: 70 to 99%) | 4 (4: 91 to 100%)
COc1ccccc1OC=C(C)C(=Nc1ccccc1)Oc1cccc(C)c1 [Compound 233, 3-methylphenyl 3-(2-methoxyphenyloxy)-2-methyl-N-phenyl-2-propenimidate] | 3 (3: 80 to 99%) | 4 (4: 100%) | 3 (index 3: 4 to 10) | 3 (3: 1 to 10%) | 3 (3: 80 to 99%) | 3 (3: 80 to 99%) | 3 (3: 1 to 10%) | 3 (3: 70 to 99%) | 4 (4: 91 to 100%)
CCc1cccc(OC(=Nc2ccccc2)C(C)=COc2ccccc2OC)c1 [Compound 234, 3-ethylphenyl 3-(2-methoxyphenyloxy)-2-methyl-N-phenyl-2-propenimidate] | 3 (3: 80 to 99%) | 4 (4: 100%) | 3 (index 3: 4 to 10) | 3 (3: 1 to 10%) | 3 (3: 80 to 99%) | 3 (3: 80 to 99%) | 3 (3: 1 to 10%) | 3 (3: 70 to 99%) | 4 (4: 91 to 100%)
CCOc1cccc(OC(=Nc2ccccc2)C(C)=COc2ccccc2OC)c1 [Compound 237, 3-ethoxyphenyl 3-(2-methoxyphenyloxy)-2-methyl-N-phenyl-2-propenimidate] | 3 (3: 80 to 99%) | 4 (4: 100%) | 3 (index 3: 4 to 10) | 3 (3: 1 to 10%) | 3 (3: 80 to 99%) | 3 (3: 80 to 99%) | 3 (3: 1 to 10%) | 3 (3: 70 to 99%) | 4 (4: 91 to 100%)
COc1ccccc1OC=C(C)C(=Nc1ccc(C)cc1)Oc1cccc(C)c1 [Compound 240, 3-methylphenyl 3-(2-methoxyphenyloxy)-2-methyl-N-(4-methylphenyl)-2-propenimidate] | 3 (3: 80 to 99%) | 4 (4: 100%) | 3 (index 3: 4 to 10) | 3 (3: 1 to 10%) | 3 (3: 80 to 99%) | 3 (3: 80 to 99%) | 3 (3: 1 to 10%) | 3 (3: 70 to 99%) | 4 (4: 91 to 100%)
COc1ccc(N=C(Oc2ccccc2)C(C)=COc2ccccc2OC)cc1 [Compound 245, phenyl N-(4-methoxyphenyl)-3-(2-methoxyphenyloxy)-2-methyl-2-propenimidate] | 3 (3: 80 to 99%) | 4 (4: 100%) | 3 (index 3: 4 to 10) | 3 (3: 1 to 10%) | 3 (3: 80 to 99%) | 3 (3: 80 to 99%) | 3 (3: 1 to 10%) | 3 (3: 70 to 99%) | 4 (4: 91 to 100%)
COc1ccc(N=C(Oc2cccc(C)c2)C(C)=COc2ccccc2OC)cc1 [Compound 246, 3-methylphenyl N-(4-methoxyphenyl)-3-(2-methoxyphenyloxy)-2-methyl-2-propenimidate] | 3 (3: 80 to 99%) | 4 (4: 100%) | 3 (index 3: 4 to 10) | 3 (3: 1 to 10%) | 3 (3: 80 to 99%) | 3 (3: 80 to 99%) | 3 (3: 1 to 10%) | 3 (3: 70 to 99%) | 4 (4: 91 to 100%)
COc1ccccc1OC=C(C)C(=Nc1ccc(C)c(C)c1)Oc1cccc(C)c1 [Compound 252, 3-methylphenyl N-(3,4-dimethylphenyl)-3-(2-methoxyphenyloxy)-2-methyl-2-propenimidate] | 3 (3: 80 to 99%) | 4 (4: 100%) | 3 (index 3: 4 to 10) | 3 (3: 1 to 10%) | 3 (3: 80 to 99%) | 3 (3: 80 to 99%) | 3 (3: 1 to 10%) | 3 (3: 70 to 99%) | 4 (4: 91 to 100%)
CCc1cccc(OC(=Nc2ccc(C)c(C)c2)C(C)=COc2ccccc2OC)c1 [Compound 253, 3-ethylphenyl N-(3,4-dimethylphenyl)-3-(2-methoxyphenyloxy)-2-methyl-2-propenimidate] | 3 (3: 80 to 99%) | 4 (4: 100%) | 3 (index 3: 4 to 10) | 3 (3: 1 to 10%) | 3 (3: 80 to 99%) | 3 (3: 80 to 99%) | 3 (3: 1 to 10%) | 3 (3: 70 to 99%) | 4 (4: 91 to 100%)
COc1cccc(OC=C(C)C(=Nc2ccccc2)Oc2ccccc2)c1 [Compound 257, phenyl 3-(3-methoxyphenyloxy)-2-methyl-N-phenyl-2-propenimidate] | 3 (3: 80 to 99%) | 4 (4: 100%) | 3 (index 3: 4 to 10) | 3 (3: 1 to 10%) | 3 (3: 80 to 99%) | 3 (3: 80 to 99%) | 3 (3: 1 to 10%) | 3 (3: 70 to 99%) | 4 (4: 91 to 100%)
COc1cccc(OC=C(C)C(=Nc2ccccc2)Oc2cccc(C)c2)c1 [Compound 258, 3-methylphenyl 3-(3-methoxyphenyloxy)-2-methyl-N-phenyl-2-propenimidate] | 3 (3: 80 to 99%) | 4 (4: 100%) | 3 (index 3: 4 to 10) | 3 (3: 1 to 10%) | 3 (3: 80 to 99%) | 3 (3: 80 to 99%) | 3 (3: 1 to 10%) | 3 (3: 70 to 99%) | 4 (4: 91 to 100%)
COc1cccc(OC=C(C)C(=Nc2ccccc2)Oc2cccc(OC)c2)c1 [Compound 259, 3-methoxyphenyl 3-(3-methoxyphenyloxy)-2-methyl-N-phenyl-2-propenimidate] | 3 (3: 80 to 99%) | 4 (4: 100%) | 3 (index 3: 4 to 10) | 3 (3: 1 to 10%) | 3 (3: 80 to 99%) | 3 (3: 80 to 99%) | 3 (3: 1 to 10%) | 3 (3: 70 to 99%) | 4 (4: 91 to 100%)
COc1cccc(OC=C(C)C(=Nc2ccc(C)cc2)Oc2cccc(C)c2)c1 [Compound 261, 3-methylphenyl 3-(3-methoxyphenyloxy)-2-methyl-N-(4-methylphenyl)-2-propenimidate] | 3 (3: 80 to 99%) | 4 (4: 100%) | 3 (index 3: 4 to 10) | 3 (3: 1 to 10%) | 3 (3: 80 to 99%) | 3 (3: 80 to 99%) | 3 (3: 1 to 10%) | 3 (3: 70 to 99%) | 4 (4: 91 to 100%)
